60 compounds from PubChem BioAssay AID2685 (National Center for Advancing Translational Sciences (NCATS), 2010) can be followed below.

The nature of this assay: qHTS Assay for Lipid Storage Modulators in Drosophila S3 Cells.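 As to cell number change: cells counted by Cell Tracker Red CMTPX staining in the red channel.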 To be noted: BODIPY lipid droplet fluorescence, 18-24 h; for cell number change: measured here: cell count max response, cells fed with added oleic acid. Summed up:
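Drosophila S3 cells loaded with oleic acid (400 uM, as added) and compounds at several concentrations; lipid droplets imaged by 488-nm laser-scanning cytometry, 500–530 nm intensity and object ratio to cell channel. Percent activity normalized to 20 uM Triacsin C.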

The mark [1] stands for this setting: measured here: lipid fluorescence (Fed channel) AC50, cells fed with added oleic acid.
[2] abbreviates: measured here: cell number channel AC50, cells fed with added oleic acid.

The other results are listed elsewhere or left out. Shown are side measurements of this screen, not its main read-out; they come without a call. Most of these compounds were active or inconclusive in the main read-out, so they are no random draw. Words in brackets tell the shape of the fitted curve; partial curves, single points and poor fits give uncertain potencies.

In the case of `CCCn1c(N)c(C(=O)CSc2nnc(C3CC3)n2Cc2ccccc2)c(=O)n(C)c1=O`, the cell number change was -8.42%.

A word on the AC50: it is the concentration giving half of the maximal activity seen. As to `O=C1OC2(CCCCC2)CC2=C1C1O[C@](c3ccsc3)(Cc3ccccc31)O2`, the cell number change is -0.291%. The AC50 under setting [1] is 0.668 µM [falling, single point].

For `COCCCn1c(-c2ccsc2)nc2c1c(=O)[nH]c(=O)n2Cc1ccccc1`, the cell number change is -8.74%. For the same compound, the concentration at half-maximal activity (AC50) under setting [1] is 20.6 µM [rising, single point]. Turning to `COC(=O)c1c(NC(=O)Nc2ccc(Cl)cc2)sc(C)c1C`, the cell number change was -37.6%. The AC50 under setting [1] was 0.461 µM [rising, full curve].

For `COc1ccccc1/C=C(/C(=O)OCC(=O)Nc1ccccc1C)c1ccccc1`, the cell number change was -23%. Besides, the AC50 under setting [2] was 0.731 µM [rising, partial curve, poor fit]. Moreover, the AC50 under setting [1] is 0.411 µM [falling, partial curve, poor fit]. Regarding `CC1CCN(C(=O)c2ccc(N3C(=O)c4ccccc4C3=O)cc2)CC1`, the cell number change was -7.69%. For the same compound, under setting [1], the AC50 was 29.1 µM [rising, single point]. Turning to `COc1ccc2c(c1)c1nc3ccccc3nc1n2CC(=O)OC(C)C`, the AC50 reads like this: under setting [2], 1.3 µM [rising, full curve]; under setting [1], 0.731 µM [rising, full curve]. On to `CCC(Oc1ccccc1OC)C(=O)Nc1ccc2c(c1)OCCO2` (centres undefined), for which the cell number change turned out to be 33.3%. Regarding `COc1ccccc1NC(=O)NC(N)=O`, the cell number change is 125%. Besides, under setting [2], the AC50 was 16.4 µM [rising, partial curve].

As to `Cc1ccccc1N=C1NN=C(c2ccccc2F)CS1`, the cell number change is 12.5%. Further, under setting [1], the AC50 is 0.411 µM [falling, partial curve]. `OCC[C@H]1C[C@@H](O)[C@H](O)[C@]2(OCCc3ccccc32)O1`: the cell number change was -17%. Further, the AC50 under setting [1] is 18.4 µM [falling, single point]. In the case of `O=C(COC(=O)C1CC(=O)N(Cc2ccco2)C1)c1ccc(OC(=O)c2ccco2)cc1` (centres undefined), the cell number change is -34.1%. In addition, under setting [2], the AC50 was 25.9 µM [falling, single point]. Under setting [1], the AC50 is 25.9 µM [falling, single point]. As for `CC1CC(C)CN(S(=O)(=O)c2ccc3c(c2)oc(=O)n3CC(=O)N(C)Cc2ccccc2)C1` (centres undefined), the cell number change was 9.28%. In addition, the AC50 under setting [1] was 16.4 µM [falling, partial curve]. With `Cc1ccc(C=C2C(Cl)=C(Cl)C(Cl)=C2Cl)cc1`, the cell number change was -24.3%. Moreover, the AC50 under setting [1] was 5.8 µM [falling, full curve]. Consider `CCOC(=O)c1cnc2ccc(C(=O)OC)cc2c1Nc1cccc(C(=O)O)c1`, for which the cell number change was 30%. Also, the AC50 under setting [2] is 7.31 µM [rising, partial curve, poor fit]. Under setting [1], the AC50 is 29.1 µM [rising, single point]. Take `COCCn1c(SCC(=O)Nc2ccc(C(N)=O)cc2)nc2c([nH]c3ccccc32)c1=O`: the cell number change is 18.2%. Moreover, the AC50 under setting [1] is 29.1 µM [rising, single point]. On to `OCC[C@H]1C[C@@H](O)[C@H](O)[C@]2(OCc3ccccc32)O1`, for which the cell number change is -5.36%. Further, the AC50 under setting [1] was 3.66 µM [rising, full curve].

As to `CC(C)Sc1ncnc2c1oc1ccccc12`, the cell number change is -42.1%. Moreover, the AC50 under setting [2] is 29.1 µM [falling, single point].

On to `CCCOc1ccc(-c2nc(=S)[nH][nH]2)cc1`, for which the AC50 under setting [2] was 6.51 µM [falling, single point]. Take `CS(=O)(=O)N1CCc2cc(C(=O)N3CCN(c4ccccc4)CC3)ccc21`: the cell number change came to 3.88%. Further, the AC50 under setting [1] is 0.92 µM [rising, partial curve]. As for `Cc1noc(C)c1C(=O)Nc1nc2ccccc2s1`, the cell number change is -87.3%. Also, the AC50 under setting [2] was 10.3 µM [falling, partial curve, poor fit]. Also, the AC50 under setting [1] is 0.00731 µM [falling, full curve, poor fit]. Consider `NC(=O)c1cccn1Cc1cccc(Cl)c1`, for which the AC50 under setting [2] was 0.00517 µM [falling, full curve, poor fit] and the AC50 under setting [1] was 6.51 µM [falling, partial curve, poor fit].

Regarding `Cc1ccc(C2OC3=C(C(=O)CC(C)(C)C3)C(N)=C2C#N)o1` (centres undefined), the cell number change was -19.4%. Also, under setting [2], the AC50 is 0.291 µM [falling, partial curve, poor fit].

For `CCOC(=O)c1c(NC(=O)c2cccs2)sc(C)c1CC`, the cell number change was -14.1%. The AC50 under setting [1] is 4.11 µM [rising, single point]. As for `COc1cc(CC(=O)NCc2cccs2)cc(OC)c1OC`, the cell number change was 36.5%. Moreover, the AC50 under setting [2] was 20.6 µM [rising, single point]. In the case of `Cc1cc(C)c2[nH]c(=O)c(CN(CC3CCCO3)C(=S)NCc3ccco3)cc2c1` (centres undefined), the cell number change was found to be 11.7%. The AC50 under setting [2] was 4.11 µM [rising, single point]. The AC50 under setting [1] was 0.291 µM [rising, full curve]. For `Clc1cccc(Cl)c1/C=N/Nc1c(Cl)cncc1Cl`, the cell number change was found to be 10.9%. Also, the AC50 under setting [2] was 0.731 µM [falling, single point]. Besides, the AC50 under setting [1] is 0.731 µM [falling, single point].

Regarding `O=C(c1cc(NC(=O)C23CC4CC(CC(C4)C2)C3)cc(NC(=O)C23CC4CC(CC(C4)C2)C3)c1)N1CCCCC1`, the cell number change is -12.9%. For the same compound, under setting [1], the AC50 was 4.11 µM [falling, full curve, poor fit]. For the compound `Cc1ccc(-n2nc(C)c3c2OC(N)=C(C#N)C3c2ccncc2)cc1` (centres undefined), the cell number change is -0.544%. On to `Cc1ccccc1CNC(=O)c1ccccc1`, for which the cell number change stood at 3.71%. Further, under setting [1], the AC50 is 0.58 µM [rising, single point]. For `CSC1=NC(C)(C)C=C(/C=C/c2ccc(Cl)cc2Cl)N1`, the cell number change was -4.56%.

As for `CC(C)=C1SC(N2CCN(c3ccc(C)c(Cl)c3)CC2)=NC1=O`, the cell number change amounted to 4.16%. Moreover, the AC50 under setting [1] was 0.517 µM [rising, full curve]. Consider `COc1cccc(-n2cnnc2SCC(=O)NC2CC2)c1`, for which the cell number change was -4.4%. Under setting [1], the AC50 is 0.731 µM [falling, full curve, poor fit].

Turning to `CN(C)c1ccc2nsnc2c1[N+](=O)[O-]`, the cell number change turned out to be 17.7%. `Clc1ccccc1/C=C/C=N/Nc1nc(N2CCOCC2)nc(N2CCOCC2)n1`: the cell number change was -5.35%. In the case of `CCC(=O)NC(=S)Nc1ccc(NC(=O)COc2ccc(Cl)c(C)c2)cc1`, the cell number change was found to be 27.2%. Also, the AC50 under setting [1] was 29.1 µM [rising, single point]. For the compound `CCOc1ccc(NC(=O)c2[nH]c(C)c(C(C)=O)c2C)cc1`, the cell number change is -23.4%. Also, the AC50 under setting [2] was 4.11 µM [falling, single point]. With `O=S(=O)(Nc1ccc(N2CCOCC2)cc1)c1cc(Cl)ccc1Cl`, the cell number change was -15.8%.

Turning to `COc1ccc(N2CC(C(=O)OCC(=O)Nc3ccccc3C)CC2=O)cc1` (centres undefined), the cell number change is -10.4%. The AC50 under setting [1] was 0.13 µM [falling, full curve, poor fit].

Regarding `Cc1ccc(OCCNS(=O)(=O)c2cccs2)cc1`, the cell number change was -40.5%. Further, under setting [2], the AC50 is 11.6 µM [falling, partial curve]. Further, the AC50 under setting [1] is 16.4 µM [falling, single point]. As to `C[C@H](NS(=O)(=O)c1ccc2c(c1)OCCCO2)C(=O)N1CCN(c2ccc(F)cc2)CC1`, the cell number change is -7.9%. In addition, the AC50 under setting [2] is 0.103 µM [falling, full curve, poor fit]. Take `CCOc1cccc(OCCCOc2ccccc2)c1`: the cell number change is -2.87%. Moreover, under setting [1], the AC50 was 6.51 µM [falling, single point].

On to `O=[N+]([O-])c1ccc(/C=C/c2ccc3ccccc3n2)cc1`, for which the cell number change is -13.1%. Further, the AC50 under setting [2] is 6.51 µM [rising, single point]. For `Cc1cc(C)c(S(=O)(=O)N2CCN(C(=O)C3COc4ccccc4O3)CC2)c(C)c1` (centres undefined), the cell number change came to 0.125%. The AC50 under setting [1] is 0.259 µM [falling, full curve, poor fit]. In the case of `COc1ccc(NC(=O)CNC(=O)C2CCCCC2)cc1`, the cell number change was -1.49%. The AC50 under setting [1] is 29.1 µM [rising, single point]. As to `Nc1c2c(nn1-c1ccc(F)cc1)CSC2`, the cell number change came to 38.2%. For the same compound, the AC50 under setting [2] is 20.6 µM [rising, partial curve, poor fit]. For the same compound, the AC50 under setting [1] was 16.4 µM [rising, single point]. As to `CCC(CC)C(=O)c1c[nH]c(C(=O)NCCc2ccccn2)c1`, the cell number change stood at 75%. Moreover, under setting [1], the AC50 is 29.1 µM [rising, single point]. `CCOc1ccccc1Nc1ncnc2c1cnn2-c1ccccc1`: the AC50 under setting [2] was 3.26 µM [rising, partial curve]. Take `O=C1Nc2ccccc2S/C1=C\C(=O)N1CCCC1`: the AC50 was 6.51 µM [rising, single point] under setting [2] and 3.66 µM [falling, single point] under setting [1]. For the compound `O=C(NCCOc1ccccc1F)c1cc(F)c(F)cc1Cl`, the cell number change turned out to be 8.65%. The AC50 under setting [1] was 0.411 µM [rising, partial curve]. Turning to `OCCCNc1cc(-c2ccccc2)nc2cc(-c3ccc(F)cc3)nn12`, the cell number change was determined as 5.28%. Also, the AC50 under setting [1] is 0.184 µM [rising, full curve, poor fit]. Turning to `CCN(C(=O)CSc1ccc2ccccc2n1)C1CCS(=O)(=O)C1` (centres undefined), the cell number change is 46.4%. For the same compound, the AC50 under setting [2] is 0.517 µM [rising, full curve]. Take `COC(=O)c1c(C)[nH]c(C(=O)/C=C/c2ccccc2)c1C`: the cell number change was determined as 5.87%. For the same compound, under setting [1], the AC50 was 0.058 µM [rising, full curve, poor fit]. On to `Cc1ccc(S(=O)(=O)N2CCCC2C(=O)Nc2cc(C)on2)cc1` (centres undefined), for which the cell number change was -7.16%.

As to `CCN(CC)c1ccc(S(=O)(=O)N2CCOCC2)cc1NC(=O)CSc1nncs1`, the AC50 reads like this: under setting [2], 6.51 µM [falling, single point]; under setting [1], 1.46 µM [falling, full curve]. `Cc1ccc2c(c1)N(CC(=O)NCC(C)c1ccccc1)C(=O)c1cccnc1O2` (centres undefined): the cell number change is -11%. As for `Brc1ccc(CN2CC[C@H]3C=CCc4cccc(c43)C2)cc1`, the cell number change was -30.8%. For the same compound, the AC50 under setting [2] is 20.6 µM [falling, single point]. For the same compound, under setting [1], the AC50 was 29.1 µM [falling, single point]. For the compound `O=C(CCCOc1ccccc1)Nc1ccc(Cl)cn1`, the cell number change turned out to be 22.3%. The AC50 under setting [1] was 0.82 µM [falling, full curve, poor fit]. On to `CSc1nnc(N2C(=O)C(O)=C(C(=O)c3ccco3)C2c2ccccc2)s1` (centres undefined), for which the cell number change was found to be 11.5%. The AC50 under setting [1] was 0.58 µM [rising, single point]. On to `Cc1nc2scc(C)n2c(=O)c1S(=O)(=O)N1CCN(c2cccc(C(F)(F)F)c2)CC1`, for which the cell number change is 41.3%. For the same compound, under setting [2], the AC50 is 29.1 µM [rising, single point]. Moreover, the AC50 under setting [1] was 29.1 µM [rising, single point].
